Measurements: paper PMC12040762
These are yes or no findings as the source states them, for the method shown. Binding seen in cells or lysates may run through a third protein. Some results given as binding are weak or reduced against the parent protein; the word gives no strength.

By UniProt entry, the sequences of proteins in these tests, tags left out.
UniProt P29341: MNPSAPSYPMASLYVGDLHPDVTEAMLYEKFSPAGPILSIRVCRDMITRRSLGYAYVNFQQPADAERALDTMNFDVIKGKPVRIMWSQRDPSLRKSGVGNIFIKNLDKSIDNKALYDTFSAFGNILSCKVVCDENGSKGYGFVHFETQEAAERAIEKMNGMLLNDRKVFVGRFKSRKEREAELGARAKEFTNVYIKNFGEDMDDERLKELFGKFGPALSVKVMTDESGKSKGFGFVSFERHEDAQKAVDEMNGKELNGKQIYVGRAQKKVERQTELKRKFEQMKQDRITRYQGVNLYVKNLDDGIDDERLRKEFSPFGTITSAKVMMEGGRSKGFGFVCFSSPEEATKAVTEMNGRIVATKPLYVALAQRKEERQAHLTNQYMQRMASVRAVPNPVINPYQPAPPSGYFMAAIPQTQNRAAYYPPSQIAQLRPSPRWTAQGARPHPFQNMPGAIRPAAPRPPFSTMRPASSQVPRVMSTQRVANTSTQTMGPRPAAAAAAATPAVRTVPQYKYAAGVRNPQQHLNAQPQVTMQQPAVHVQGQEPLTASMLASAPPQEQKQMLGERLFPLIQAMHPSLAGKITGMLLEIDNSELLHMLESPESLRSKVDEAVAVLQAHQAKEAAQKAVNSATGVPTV

B1: ADP-ribosylation factor collaborator (CARF) (protein, UniProt Q8BI72 1-563)
chain: MAQEVSEYLSQNPRVAAWVETLRCEGETDKHWRHRREFLLRNAGDLVPATDETADAESGARTRQLQQLVSFSMAWANHVFLGCRYPQKVMDKILSMAEGIKVTDAPIHTTRDELVAKVKKRGISSSNEGVEEPSKKRAVEGKNNSSVERDHGKKSAKTDRSAAQQENSSPSRGSSTKSESGGTSARSSSSGSHQDSATSEGDRSVCSQSSSNSSQVTAGSGKALESEAPHKRGSASFVSSLLKSSMNSHMTQSTDNRQQSGSPKKGALEGSSGSASQSSSEIEVPLLGSSGSAEVELPLLSCKSSSETASSGLTSKSSSEANISSSVSKNSSSSGSSLLTPQSSSTNPSLLTSKSTAQVAASLLATKSGASLGSVSQLAAKSGSQSSTSQLPSKSTSQASESSVKFACRKLTNEDIKQKQPFFNRLYKTVAWKLVAVGGFSPTVNHGELLNAAIEALKATLDVFFVPLKELADLPQNKSSQESIVCELRCKSVYLGTGCGKSKENAKAVASREALKLFLKKKVVVKICKRKYRGSEIEDLVLLDEEARPVNLPPALKHPQELL

Columns and labels:
[1] = target: T1, ADP-ribosylation factor collaborator (CARF) (mouse (endogenous in testis)) (UniProt Q8BI72); assay: co-IP; mouse testis protein extracts; IP with antibody to CARF or to PABPC1, IgG as control; SDS-PAGE and western blot
T1 sequence: B1 chain

[2] = target: poly-A binding protein cytoplasmic 1 (PABPC1) (mouse (endogenous in testis)) (UniProt P29341); assay: as above

Molecule	binding [1]	binding [2]
poly-A binding protein cytoplasmic 1 (PABPC1) (from UniProt P29341 1-636)	binds	–
B1	–	binds
